Assay results taken from patent US7989466B2 (Cambridge Enterprise Limited, priority 1999, dated 2011).

Experiment: peptide made by a vendor (peptide synthesis; Rink amide resin)
Conditions: whole synthesis, triacetate salt

Row | Substance | final purity (method not given) (HPLC) | final HPLC purity (TFA salts)
1 | -CQIWKQKPDLC-- | >97% | –
2 | n′-CLDPKQKWIQC-c′ | – | >90%
